Assay results: the supplement of paper PMC6411743
± gives the standard deviation of the averaged measurements. Only a part is listed here, and it is no random draw. Small differences around the control level are noise.

Protein sequences, listed by entry. Tags and fused reporters are not part of them. Lines headed by an entry give the natural chain unless they say otherwise; changes in a name come on top.
UniProt P01137, whole entry: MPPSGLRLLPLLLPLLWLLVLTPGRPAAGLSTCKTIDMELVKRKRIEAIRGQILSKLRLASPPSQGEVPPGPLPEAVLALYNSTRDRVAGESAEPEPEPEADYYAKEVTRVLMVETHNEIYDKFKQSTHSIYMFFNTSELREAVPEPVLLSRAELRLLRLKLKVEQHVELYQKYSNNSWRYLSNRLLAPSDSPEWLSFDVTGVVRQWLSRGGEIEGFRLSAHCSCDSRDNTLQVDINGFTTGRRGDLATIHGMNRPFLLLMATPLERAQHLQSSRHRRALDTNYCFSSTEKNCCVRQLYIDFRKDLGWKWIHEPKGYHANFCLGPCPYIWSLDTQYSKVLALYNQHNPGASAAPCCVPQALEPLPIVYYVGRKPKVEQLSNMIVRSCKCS
UniProt P04150: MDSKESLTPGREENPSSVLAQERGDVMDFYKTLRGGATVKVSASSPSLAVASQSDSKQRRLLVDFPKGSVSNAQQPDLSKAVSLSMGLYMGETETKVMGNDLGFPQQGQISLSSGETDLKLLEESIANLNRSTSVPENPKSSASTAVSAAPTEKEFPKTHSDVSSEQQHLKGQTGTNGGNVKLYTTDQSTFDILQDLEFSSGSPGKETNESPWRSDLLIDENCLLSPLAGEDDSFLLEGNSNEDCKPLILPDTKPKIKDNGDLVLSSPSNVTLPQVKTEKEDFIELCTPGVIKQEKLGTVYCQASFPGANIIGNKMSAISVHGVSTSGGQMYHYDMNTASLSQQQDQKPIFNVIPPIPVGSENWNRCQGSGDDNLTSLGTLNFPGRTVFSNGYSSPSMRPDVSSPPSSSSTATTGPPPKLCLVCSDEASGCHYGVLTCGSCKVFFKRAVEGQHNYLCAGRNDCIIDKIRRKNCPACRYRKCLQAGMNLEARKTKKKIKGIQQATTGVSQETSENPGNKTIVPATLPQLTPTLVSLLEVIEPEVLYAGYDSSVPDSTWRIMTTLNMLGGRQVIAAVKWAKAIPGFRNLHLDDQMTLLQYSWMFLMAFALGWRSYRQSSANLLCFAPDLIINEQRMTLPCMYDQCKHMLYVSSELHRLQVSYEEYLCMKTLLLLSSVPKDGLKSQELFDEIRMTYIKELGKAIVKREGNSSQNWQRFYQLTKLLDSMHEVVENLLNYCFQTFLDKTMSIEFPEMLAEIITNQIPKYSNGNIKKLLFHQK
UniProt P12755: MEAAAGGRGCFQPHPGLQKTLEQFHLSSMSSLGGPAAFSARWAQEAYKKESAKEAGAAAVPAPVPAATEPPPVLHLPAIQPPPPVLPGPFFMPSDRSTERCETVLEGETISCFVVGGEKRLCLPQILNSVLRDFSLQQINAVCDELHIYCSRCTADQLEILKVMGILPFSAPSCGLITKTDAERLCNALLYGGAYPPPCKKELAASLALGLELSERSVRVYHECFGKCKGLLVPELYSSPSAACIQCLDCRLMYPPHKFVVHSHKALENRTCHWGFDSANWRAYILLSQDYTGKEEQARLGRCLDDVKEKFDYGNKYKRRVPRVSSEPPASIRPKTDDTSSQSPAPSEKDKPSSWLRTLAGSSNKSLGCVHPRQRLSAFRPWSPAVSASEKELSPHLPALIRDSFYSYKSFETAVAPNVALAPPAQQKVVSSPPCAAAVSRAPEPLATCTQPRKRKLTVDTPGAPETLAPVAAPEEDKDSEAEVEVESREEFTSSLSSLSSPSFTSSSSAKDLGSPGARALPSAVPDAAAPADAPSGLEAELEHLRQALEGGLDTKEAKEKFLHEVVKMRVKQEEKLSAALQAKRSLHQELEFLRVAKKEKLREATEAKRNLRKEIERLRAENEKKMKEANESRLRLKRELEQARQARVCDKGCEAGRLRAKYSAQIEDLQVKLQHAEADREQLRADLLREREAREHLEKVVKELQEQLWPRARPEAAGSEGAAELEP
UniProt P12236: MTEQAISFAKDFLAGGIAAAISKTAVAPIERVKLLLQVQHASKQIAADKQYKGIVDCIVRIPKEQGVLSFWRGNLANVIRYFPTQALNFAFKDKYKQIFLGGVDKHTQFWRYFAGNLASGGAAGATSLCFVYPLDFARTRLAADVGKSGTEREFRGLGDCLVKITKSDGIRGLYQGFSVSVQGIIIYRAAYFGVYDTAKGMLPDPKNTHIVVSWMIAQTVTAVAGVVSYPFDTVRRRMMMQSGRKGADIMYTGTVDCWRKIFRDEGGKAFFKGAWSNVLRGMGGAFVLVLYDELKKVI
UniProt P04035: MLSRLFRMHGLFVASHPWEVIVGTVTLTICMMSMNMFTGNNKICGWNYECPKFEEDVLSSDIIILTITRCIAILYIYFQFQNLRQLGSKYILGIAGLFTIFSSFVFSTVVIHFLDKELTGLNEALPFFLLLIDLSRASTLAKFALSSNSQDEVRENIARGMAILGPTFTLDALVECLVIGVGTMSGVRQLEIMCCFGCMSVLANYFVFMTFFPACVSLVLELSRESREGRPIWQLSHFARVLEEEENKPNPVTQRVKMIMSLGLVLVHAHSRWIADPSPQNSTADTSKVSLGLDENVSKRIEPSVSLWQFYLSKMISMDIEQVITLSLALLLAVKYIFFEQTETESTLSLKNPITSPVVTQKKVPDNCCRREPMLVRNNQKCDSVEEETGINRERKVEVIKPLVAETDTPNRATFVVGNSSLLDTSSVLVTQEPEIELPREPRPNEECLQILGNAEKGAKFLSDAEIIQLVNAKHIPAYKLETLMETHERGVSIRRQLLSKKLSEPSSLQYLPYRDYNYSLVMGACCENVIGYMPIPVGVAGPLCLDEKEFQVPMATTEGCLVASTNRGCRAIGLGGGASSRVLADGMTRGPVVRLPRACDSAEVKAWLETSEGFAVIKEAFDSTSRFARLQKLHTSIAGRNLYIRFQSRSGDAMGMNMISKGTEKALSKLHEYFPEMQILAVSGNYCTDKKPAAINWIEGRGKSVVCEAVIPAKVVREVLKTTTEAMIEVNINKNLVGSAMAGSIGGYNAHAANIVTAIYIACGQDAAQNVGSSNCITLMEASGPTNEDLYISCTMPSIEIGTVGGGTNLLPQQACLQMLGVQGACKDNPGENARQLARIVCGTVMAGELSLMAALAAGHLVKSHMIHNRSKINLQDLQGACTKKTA
UniProt P08134, whole entry: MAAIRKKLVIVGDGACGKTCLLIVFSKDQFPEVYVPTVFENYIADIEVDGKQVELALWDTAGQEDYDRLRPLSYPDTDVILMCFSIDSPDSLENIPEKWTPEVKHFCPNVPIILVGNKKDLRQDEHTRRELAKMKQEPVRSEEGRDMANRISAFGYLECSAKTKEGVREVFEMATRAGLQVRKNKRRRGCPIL
UniProt P16455, whole entry: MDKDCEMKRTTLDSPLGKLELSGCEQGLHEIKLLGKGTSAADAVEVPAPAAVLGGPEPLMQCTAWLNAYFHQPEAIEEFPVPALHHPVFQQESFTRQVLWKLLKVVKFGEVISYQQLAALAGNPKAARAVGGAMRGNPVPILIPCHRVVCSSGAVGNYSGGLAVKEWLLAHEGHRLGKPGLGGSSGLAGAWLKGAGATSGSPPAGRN
UniProt P06753, whole entry: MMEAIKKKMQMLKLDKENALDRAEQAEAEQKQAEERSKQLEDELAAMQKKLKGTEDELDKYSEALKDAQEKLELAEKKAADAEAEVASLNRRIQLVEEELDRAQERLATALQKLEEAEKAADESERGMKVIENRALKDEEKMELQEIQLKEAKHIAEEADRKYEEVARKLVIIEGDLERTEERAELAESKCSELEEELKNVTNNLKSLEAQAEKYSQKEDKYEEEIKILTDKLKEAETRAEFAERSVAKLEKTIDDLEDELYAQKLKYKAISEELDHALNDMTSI
UniProt P15927: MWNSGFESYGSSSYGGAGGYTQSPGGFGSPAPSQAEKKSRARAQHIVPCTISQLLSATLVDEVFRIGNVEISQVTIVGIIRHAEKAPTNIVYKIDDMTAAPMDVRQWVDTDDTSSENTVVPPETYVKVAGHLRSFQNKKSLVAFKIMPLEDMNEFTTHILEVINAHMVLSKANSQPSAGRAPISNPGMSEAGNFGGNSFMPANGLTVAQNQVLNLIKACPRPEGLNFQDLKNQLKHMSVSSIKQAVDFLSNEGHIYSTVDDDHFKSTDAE
UniProt O96019, whole entry: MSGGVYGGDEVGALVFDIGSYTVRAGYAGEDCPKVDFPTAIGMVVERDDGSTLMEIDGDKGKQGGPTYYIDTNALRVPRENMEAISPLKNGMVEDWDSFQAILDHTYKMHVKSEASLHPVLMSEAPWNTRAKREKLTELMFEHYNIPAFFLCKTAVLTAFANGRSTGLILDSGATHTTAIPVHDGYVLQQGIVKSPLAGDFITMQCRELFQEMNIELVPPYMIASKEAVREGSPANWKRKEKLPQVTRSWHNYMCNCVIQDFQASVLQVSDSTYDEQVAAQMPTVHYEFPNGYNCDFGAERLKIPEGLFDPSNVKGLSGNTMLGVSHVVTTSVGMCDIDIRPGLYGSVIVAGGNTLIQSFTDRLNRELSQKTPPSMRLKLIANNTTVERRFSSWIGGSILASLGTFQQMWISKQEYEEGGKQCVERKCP
UniProt P08240: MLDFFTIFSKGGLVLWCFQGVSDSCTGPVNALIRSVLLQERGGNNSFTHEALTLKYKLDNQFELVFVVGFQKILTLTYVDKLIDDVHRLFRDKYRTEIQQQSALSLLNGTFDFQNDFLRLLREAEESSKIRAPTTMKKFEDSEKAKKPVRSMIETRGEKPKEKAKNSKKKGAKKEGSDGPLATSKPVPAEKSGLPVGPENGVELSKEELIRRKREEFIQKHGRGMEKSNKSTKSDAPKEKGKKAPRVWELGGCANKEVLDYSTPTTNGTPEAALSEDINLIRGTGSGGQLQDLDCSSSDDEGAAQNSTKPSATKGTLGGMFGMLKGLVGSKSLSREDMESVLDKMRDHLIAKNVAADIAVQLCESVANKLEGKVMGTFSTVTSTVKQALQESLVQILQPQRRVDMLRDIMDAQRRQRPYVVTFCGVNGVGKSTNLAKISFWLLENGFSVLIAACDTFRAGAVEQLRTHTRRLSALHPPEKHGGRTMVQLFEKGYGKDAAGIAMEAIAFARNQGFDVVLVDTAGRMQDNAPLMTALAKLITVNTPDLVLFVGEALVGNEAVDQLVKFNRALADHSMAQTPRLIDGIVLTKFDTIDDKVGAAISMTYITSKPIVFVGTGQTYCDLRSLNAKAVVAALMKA
UniProt P06737: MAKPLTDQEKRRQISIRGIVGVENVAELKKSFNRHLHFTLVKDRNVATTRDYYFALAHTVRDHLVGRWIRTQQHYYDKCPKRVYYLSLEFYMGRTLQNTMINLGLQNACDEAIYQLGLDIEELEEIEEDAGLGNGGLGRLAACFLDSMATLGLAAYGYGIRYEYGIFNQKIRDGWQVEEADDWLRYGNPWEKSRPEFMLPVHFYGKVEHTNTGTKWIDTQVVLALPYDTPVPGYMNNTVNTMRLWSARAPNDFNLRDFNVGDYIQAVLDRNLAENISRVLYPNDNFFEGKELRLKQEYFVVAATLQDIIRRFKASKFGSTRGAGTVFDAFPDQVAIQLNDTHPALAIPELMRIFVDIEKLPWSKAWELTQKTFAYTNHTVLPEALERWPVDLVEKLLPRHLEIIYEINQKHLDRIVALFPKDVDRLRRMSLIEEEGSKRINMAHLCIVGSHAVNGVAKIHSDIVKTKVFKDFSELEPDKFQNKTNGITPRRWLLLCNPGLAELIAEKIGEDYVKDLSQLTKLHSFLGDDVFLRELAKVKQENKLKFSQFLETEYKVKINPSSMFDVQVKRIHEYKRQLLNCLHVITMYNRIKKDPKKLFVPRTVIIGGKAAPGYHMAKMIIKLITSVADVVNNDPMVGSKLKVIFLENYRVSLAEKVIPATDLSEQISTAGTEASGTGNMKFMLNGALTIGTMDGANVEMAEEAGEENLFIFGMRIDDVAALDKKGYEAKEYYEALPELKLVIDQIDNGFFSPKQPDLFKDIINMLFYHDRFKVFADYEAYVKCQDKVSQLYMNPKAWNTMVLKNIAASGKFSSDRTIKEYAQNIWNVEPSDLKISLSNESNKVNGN
UniProt P12004, whole entry: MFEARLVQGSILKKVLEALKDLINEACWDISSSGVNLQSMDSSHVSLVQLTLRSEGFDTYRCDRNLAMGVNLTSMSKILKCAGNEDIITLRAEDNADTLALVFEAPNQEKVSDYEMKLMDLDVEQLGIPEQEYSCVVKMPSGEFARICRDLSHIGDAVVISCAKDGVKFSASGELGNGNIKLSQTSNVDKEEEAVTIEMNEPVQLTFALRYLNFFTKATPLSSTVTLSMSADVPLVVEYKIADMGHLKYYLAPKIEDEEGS
UniProt P0CG13, whole entry: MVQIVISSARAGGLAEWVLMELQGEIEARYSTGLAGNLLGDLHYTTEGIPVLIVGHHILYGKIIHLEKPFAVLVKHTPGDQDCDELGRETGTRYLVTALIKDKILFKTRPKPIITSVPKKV
UniProt P08579, whole entry: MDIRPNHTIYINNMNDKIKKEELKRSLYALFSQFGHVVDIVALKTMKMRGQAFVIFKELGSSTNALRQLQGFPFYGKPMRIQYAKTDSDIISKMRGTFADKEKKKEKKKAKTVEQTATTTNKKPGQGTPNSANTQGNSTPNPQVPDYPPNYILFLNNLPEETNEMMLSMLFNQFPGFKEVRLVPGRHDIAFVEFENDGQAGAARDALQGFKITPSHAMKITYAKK

Each target was assayed with Nc1ncnc2c1ncn2[C@@H]1O[C@H](COP(=O)(O)OP(=O)(O)NP(=O)(O)O)[C@@H](O)[C@H]1O [adenylyl imidodiphosphate] (assay: NP40-soluble protein abundance relative to vehicle (solubility fold change) (ratio); higher = more soluble protein in presence of AMP-PNP). Details: concentration: 0.1mM.
Summary of the method: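 Eight concentrations, 0.1 to 10 mM, were tested on Jurkat crude lysate for 10 min at room temperature and then 3 min at 37 °C, in three independent experiments. The lysate was solubilised with 0.8% NP40 and benzonase, ultracentrifuged, and the supernatant TMT-labelled for LC-MS/MS. Each value is the fold change against the detergent-processed vehicle in its own replicate, from vsn-normalised intensities.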
TGFB1 (UniProt P01137) gave an NP40-soluble protein abundance of 0.994 ± 0.02.
TPR (UniProt P12270) gave an NP40-soluble protein abundance of 0.984 ± 0.027.
For CREB1 (UniProt P16220), the NP40-soluble protein abundance was 1.01 ± 0.038.
UniProt P04150 and related entries was tested, and the NP40-soluble protein abundance was 1 ± 0.028.
SKI (UniProt P12755) was tested, and the NP40-soluble protein abundance was 0.9961 ± 0.0028.
With SLC25A6 (UniProt P12236) the NP40-soluble protein abundance was 0.972 ± 0.045.
For UniProt P04035 and related entries, the NP40-soluble protein abundance was 0.982 ± 0.0089.
UniProt P08134 and related entries was tested, and the NP40-soluble protein abundance was 1.04 ± 0.06.
MGMT (UniProt P16455) gave an NP40-soluble protein abundance of 0.977 ± 0.018.
In the case of “UniProt P06753-2|P06753-3|P06753-5|P06753-6|J3KN67”, the NP40-soluble protein abundance is reported as 1 ± 0.094.
ALDOC (UniProt P09972) gave an NP40-soluble protein abundance of 1.01 ± 0.061.
UniProt P15927 and related entries was tested, and the NP40-soluble protein abundance was 0.9954 ± 0.0062.
For UniProt O96019 and related entries, the NP40-soluble protein abundance was 0.996 ± 0.045.
In the case of UniProt P08240, the NP40-soluble protein abundance is reported as 0.98 ± 0.025.
In the case of UniProt P08559 and related entries, the NP40-soluble protein abundance is reported as 1.07 ± 0.12.
Target ANXA5 (UniProt P08758) has an NP40-soluble protein abundance of 1.05 ± 0.053.
UniProt O95980 was tested, and the NP40-soluble protein abundance was 0.9795 ± 0.0044.
For HMGN2 (UniProt P05204), the NP40-soluble protein abundance was 0.946 ± 0.026.
UniProt P06737 and related entries showed an NP40-soluble protein abundance of 1.03 ± 0.024.
PCNA (UniProt P12004) was tested, and the NP40-soluble protein abundance was 0.9859 ± 0.0098.
Work on EEF2 (UniProt P13639) yielded an NP40-soluble protein abundance of 0.9858 ± 0.0067.
“P0CG12 and related entries (UniProt P0CG13)” was tested, and the NP40-soluble protein abundance was 0.974 ± 0.036.
For UniProt P05161 and related entries, the NP40-soluble protein abundance was 1.02 ± 0.036.
For SNRPB2 (UniProt P08579), the NP40-soluble protein abundance was 1.02 ± 0.049.
With UniProt P01112 the NP40-soluble protein abundance was 1.046 ± 0.0077.
UniProt P00387 and related entries gave an NP40-soluble protein abundance of 1.01 ± 0.015.
